Laboratory results published in PMC6199744, “Development of Chemical Proteomics for the Folateome and Analysis of the Kinetoplastid Folateome” (ACS Infectious Diseases, 2018).
This continues a long series; more values of the same kind are listed elsewhere.

System: L. major lysate proteins
Assay: Multitargeted bead mixture chemoproteomics, single concentration competition, proteome-wide
Assay type: binding
Conditions: for fold change: vehicle control = 1

## Nc1nc2cccc(-c3ccccc3)c2n1Cc1ccc(Cl)c(Cl)c1 [compound 3]
Protein LMJF.28.2460 RIBOSOMAL PROTEIN S29, PUTATIVE
  fold change: 1.32
Protein LMJF.28.2750 ACTIVATED PROTEIN KINASE C RECEPTOR (LACK)
  fold change: 0.97
Protein LMJF.29.0120 […]-ATPASE SUBUNIT, PUTATIVE
  fold change: 1.05
Protein LMJF.29.0760 […] BI[…], PUTATIVE,HEAT SHOCK PROTEIN 90, PUTATIVE
  fold change: 0.93
Protein LMJF.29.1240 HY[…], UNKNOWN FUNCTION
  fold change: 1.06
Protein LMJF.29.1270 100 kDa heat shock protein (Hsp100)
  fold change: 0.99
Protein LMJF.30.0120 […] SYNTHASE
  fold change vs vehicle control: 0.97
Protein LMJF.30.0750 4-METHYL-5(BETA-HYDROXYETHYL)-THIAZOLE MON[…] PROTEIN, PUTATIVE
  fold change: 0.93
Protein LMJF.30.2330 HY[…], UNKNOWN FUNCTION
  fold change: 0.93
Protein LMJF.30.2550 HEAT SHOCK 70-RELATED PROTEIN 1, MIT[…], PUTATIVE
  fold change: 1.09
Protein LMJF.30.3090 HY[…], CONSERVED
  fold change: 0.97
Protein LMJF.30.3130 VALYL-TRNA SYNTHETASE, PUTATIVE
  fold change: 0.96
Protein LMJF.30.3430 HY[…], CONSERVED
  fold change: 0.98
Protein LMJF.30.3600 ATP SYNTHASE, EPSILON CHAIN, PUTATIVE
  fold change vs vehicle control: 0.97
Protein LMJF.30.3730 60S ACIDIC RIBOSOMAL PROTEIN P2, PUTATIVE
  fold change: 1
Protein LMJF.32.0050 PROTEIN TRANSPORT PROTEIN SEC13, PUTATIVE
  fold change: 1.06
Protein LMJF.32.0750 RNA BINDING PROTEIN, PUTATIVE
  fold change: 1.14
Protein LMJF.32.1060 DYNEIN, PUTATIVE
  fold change vs vehicle control: 1.02
Protein LMJF.32.2800 HY[…], CONSERVED
  fold change: 1.26
Protein LMJF.32.3270 […] SUBUNIT, PUTATIVE
  fold change: 1
Protein LMJF.32.3310 DIHYDROLIPOAMIDE DEHYDROGENASE, PUTATIVE
  fold change: 1.09
Protein LMJF.32.3640 HY[…], CONSERVED
  fold change: 1.09
Protein LMJF.33.0240 THIOL-DEPENDENT REDUCTASE 1
  fold change: 0.89
Protein LMJF.33.0830 2,4-DIENOYL-COA REDUCTASE FADH1, PUTATIVE
  fold change: 0.8
Protein LMJF.33.1590 HY[…], CONSERVED
  fold change: 1.36
Protein LMJF.33.1750 […] […]-LIKE PROTEIN
  fold change: 0.93
Protein LMJF.33.2060 HY[…], CONSERVED
  fold change: 0.91
Protein LMJF.33.2270 HY[…], CONSERVED
  fold change: 1.11
Protein LMJF.33.2340 SUCCINYL-COA:3-KETOACID-COENZYME A TRANSFERASE, MIT[…], PUTATIVE
  fold change: 0.96
Protein LMJF.33.2540 CARBOXYPEPTIDASE, PUTATIVE,METALLO-PEPTIDASE, CLAN MA(E), FAMILY M32
  fold change: 0.93
Protein LMJF.34.0140 MALATE DEHYDROGENASE
  fold change: 2.17
Protein LMJF.34.0840 T[…] 1-BETA, PUTATIVE
  fold change: 1.05
Protein LMJF.34.0930 HY[…], CONSERVED
  fold change: 0.96
Protein LMJF.34.2340 ASPARAGINYL-TRNA SYNTHETASE, PUTATIVE
  fold change: 0.84
Protein LMJF.34.2580 HY[…], CONSERVED
  fold change vs vehicle control: 1.1
Protein LMJF.34.3250 PUTATIVE PYRUVATE/INDOLE-PYRUVATE CARBOXYLASE, PUTATIVE
  fold change: 0.91
Protein LMJF.35.0070 PROHIBITIN, PUTATIVE
  fold change: 1.11
Protein LMJF.35.0240 60S RIBOSOMAL PROTEIN L30
  fold change: 1.03
Protein LMJF.35.0360 ENOYL-COA HYDRATASE/ISOMERASE FAMILY PROTEIN, CONSERVED
  fold change: 1.13
Protein LMJF.35.0820 ASPARTATE AMINOTRANSFERASE, PUTATIVE
  fold change: 0.94
Protein LMJF.35.1220 SHORT CHAIN DEHYDROGENASE, PUTATIVE
  fold change: 1.28
Protein LMJF.35.1230 SHORT CHAIN DEHYDROGENASE, PUTATIVE
  fold change: 1.11
Protein LMJF.35.3080 GLYCEROL KINASE, GLYCOSOMAL, PUTATIVE
  fold change: 1.11
Protein LMJF.35.3230 C[…] LYASE, PUTATIVE
  fold change: 1.07
Protein LMJF.35.4420 MIT[…] TRANSPORTER, PUTATIVE
  fold change: 1.16
Protein LMJF.36.0070 STRESS-INDUCIBLE PROTEIN STI1 HOMOLOG
  fold change: 0.92
Protein LMJF.36.0210 SET DOMAIN PROTEIN, PUTATIVE
  fold change: 1
Protein LMJF.36.0320 […] 2 SUBUNIT, PUTATIVE
  fold change: 0.99
Protein LMJF.36.0930 40S RIBOSOMAL PROTEIN S18, PUTATIVE
  fold change: 1.32
Protein LMJF.36.1260 FRUCTOSE-1,6-BI[…]
  fold change: 1.12
Protein LMJF.36.1430 T[…] 1-BETA, PUTATIVE
  fold change: 1.54
Protein LMJF.36.1600 […] 1 SUBUNIT, PUTATIVE
  fold change: 1.01
Protein LMJF.36.1650 […] 5 SUBUNIT, PUTATIVE
  fold change: 0.86
Protein LMJF.36.2030 CHAPERONIN HSP60, MIT[…]
  fold change: 1.12
Protein LMJF.36.2160 HY[…], CONSERVED
  fold change: 0.96
Protein LMJF.36.2750 ACETYLTRANSFERASE-LIKE PROTEIN
  fold change: 1.02
Protein LMJF.36.2950 SUCCINYL-COA LIGASE GDP-FORMING] BETA-CHAIN, PUTATIVE
  fold change: 1.05
Protein LMJF.36.3210 14-3-3 PROTEIN-LIKE PROTEIN
  fold change: 0.86
Protein LMJF.36.3410 SHORT CHAIN DEHYDROGENASE-LIKE PROTEIN
  fold change: 1.26
Protein LMJF.36.3530 POLYUBIQUITIN, PUTATIVE
  fold change: 0.99
Protein LMJF.36.4420 60S RIBOSOMAL PROTEIN L22, PUTATIVE
  fold change: 1.12
Protein LMJF.36.4460 HY[…], CONSERVED
  fold change: 1.03
Protein LMJF.36.6540 […] ENDO-1-LIKE PROTEIN
  fold change: 1.19
